PubChem BioAssay AID1224828, NIAID – 2016

Test: 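Find genes required for NF-kappaB p65 moving into the nucleus after LPS in mouse macrophages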 (primary screen)
System: mouse RAW264.7 G9 macrophage reporter cells (GFP-p65, Tnf promoter-mCherry)
Reagent: siRNA pool against mouse genes, 100 nM
Timing: 2 days siRNA transfection, then 40 min LPS before fixation
Challenge: LPS (Salmonella minnesota R595) at 10 ng/ml
Measurement: 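Imaged p65 nuclear translocation ratio, normalised to the plate median, converted to robust z-scores and averaged across two replicates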
Scale: p65 translocation robust z-score: higher = more nuclear NF-kappaB p65 after LPS than the plate median; nuclear/cytoplasmic p65 ratio: higher = more nuclear NF-kappaB p65
Active means: 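Active if robust z is above 3.3 (negative regulators) or below -1.56, the Tlr4 control median (positive regulators); activity score 50 or more; control wells not called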
Meaning of the calls: active = hit (p65 shift raised or lowered); inactive = no clear change
Here is one part, drawn at random, of about 17,000 deposited reagents. 762 of all reagents (4.5%) were called active. 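Active calls include both raised and lowered p65 entry, mostly lowered; wells with fewer than 50 cells lack a z-score.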 The raw values are shown without normalisation. Entries without a mark were called inactive.

gene knocked down	p65 translocation robust z-score	nuclear/cytoplasmic p65 ratio, rep 1	nuclear/cytoplasmic p65 ratio, rep 2	low cell count flag
Apcdd1	0.15	1.4	1.55	enough cells to score
Rac1	0.11	1.7	1.39	enough cells to score
A530021J07Rik	0.18	1.37	1.58	enough cells to score
Zfp275	0.53	1.44	1.34	enough cells to score
Ifi35	-0.05	1.41	1.38	enough cells to score
Mcfd2	-0.54	1.63	1.47	enough cells to score
Sumf1	-0.46	1.51	1.65	enough cells to score
Timp3	0.11	1.48	1.59	enough cells to score
Trat1	-0.47	1.64	1.3	enough cells to score
Acbd6	1.18	1.77	1.88	enough cells to score
Ube2j1	-0.89	1.42	1.35	enough cells to score
Or9i16	0.25	1.67	1.44	enough cells to score
Sspn	-0.37	1.52	1.48	enough cells to score
Prima1	-0.7	1.27	1.15	enough cells to score
Ints5	-0.69	1.4	1.4	enough cells to score
Foxc2	-1	1.27	1.27	enough cells to score
Aasdh	0.24	1.35	1.56	enough cells to score
Tchp	-0.23	1.32	1.53	enough cells to score
Map2k1	2.72	1.66	1.72	enough cells to score
Zbtb12	-0.58	1.48	1.76	enough cells to score
Hnf4aos	0.83	1.68	1.54	enough cells to score
Cnot7	0.04	1.47	1.38	enough cells to score
Ddx24	1.74	1.66	1.96	enough cells to score
Katnbl1	0.02	1.31	1.55	enough cells to score
Dcaf8l	-0.36	1.42	1.18	enough cells to score
Galntl5		1.37	0	fewer than 50 cells per well; well left out of scoring
Or4c120	0.1	1.77	1.51	enough cells to score
Ttk		1.46	1.33	fewer than 50 cells per well; well left out of scoring
Hpse	-1.5	1.41	1.33	enough cells to score
Tmem170	-1.38	1.24	1.35	enough cells to score
Atp8b5		1.3	1.68	fewer than 50 cells per well; well left out of scoring
Gtf2a1	0.14	1.4	1.44	enough cells to score
Cldn19	-1.41	1.28	1.66	enough cells to score
Sowahb		1.19	1.25	fewer than 50 cells per well; well left out of scoring
Hddc3	-1.73 (active)	1.31	1.2	enough cells to score
Mfsd11		1.44	1.81	fewer than 50 cells per well; well left out of scoring
Or5v1	0.09	1.68	1.58	enough cells to score
4930578I06Rik	-0.24	1.23	1.22	enough cells to score
9130401M01Rik	-0.69	1.32	1.46	enough cells to score
Serpinb9e	-0.28	1.46	1.14	enough cells to score
Slc46a1	-0.36	1.52	1.73	enough cells to score
Synpo2	-0.25	1.34	1.16	enough cells to score
Dusp10	-0.1	1.8	1.27	enough cells to score
9330155M09Rik	1.15	1.54	1.75	enough cells to score
Chrm2	-1.14	1.4	1.36	enough cells to score
Or4p22	0.49	1.8	1.59	enough cells to score
2900092C05Rik		1.16	1.1	fewer than 50 cells per well; well left out of scoring
Ifne	-0.07	1.55	1.41	enough cells to score
Aip	1.74	1.68	2.07	enough cells to score
Or8b50		1.54	1.13	fewer than 50 cells per well; well left out of scoring
Lce1a2	0.87	1.51	1.35	enough cells to score
Gldc	1.3	1.62	1.53	enough cells to score
Tbc1d15		1.72	1.3	fewer than 50 cells per well; well left out of scoring
Or8b47		1.37	1.35	fewer than 50 cells per well; well left out of scoring
Dlx1		1.29	1.09	fewer than 50 cells per well; well left out of scoring
Tmem144	0.71	1.42	1.6	enough cells to score
Glycam1		1.58	1.34	fewer than 50 cells per well; well left out of scoring
Ikbkg	-0.92	1.32	1.25	enough cells to score
Qrich1	-0.66	1.29	1.39	enough cells to score

Single entries from the list:
A530021J07Rik, p65 translocation robust z-score → 0.18
Entry of Hpse under “nuclear/cytoplasmic p65 ratio, rep 2”: 1.33
Hddc3, nuclear/cytoplasmic p65 ratio, rep 1: 1.31 (active)
Dusp10, p65 translocation robust z-score → -0.1
Result for 9130401M01Rik in “p65 translocation robust z-score”: -0.69
For “nuclear/cytoplasmic p65 ratio, rep 2”, Lce1a2 reads 1.35
